According to the supplement of paper PMC12819154, “High-throughput peptide-centric local stability assay extends protein–ligand identification to membrane proteins, tissues and bacteria” (Nature Structural & Molecular Biology, 2025):
The other results are listed elsewhere or left out. Small differences around the control level are noise.

Chains of the proteins cited; added tags and fusions are not shown. Lines headed by an entry give the natural chain unless they say otherwise; changes in a name come on top.
UniProt Q15233: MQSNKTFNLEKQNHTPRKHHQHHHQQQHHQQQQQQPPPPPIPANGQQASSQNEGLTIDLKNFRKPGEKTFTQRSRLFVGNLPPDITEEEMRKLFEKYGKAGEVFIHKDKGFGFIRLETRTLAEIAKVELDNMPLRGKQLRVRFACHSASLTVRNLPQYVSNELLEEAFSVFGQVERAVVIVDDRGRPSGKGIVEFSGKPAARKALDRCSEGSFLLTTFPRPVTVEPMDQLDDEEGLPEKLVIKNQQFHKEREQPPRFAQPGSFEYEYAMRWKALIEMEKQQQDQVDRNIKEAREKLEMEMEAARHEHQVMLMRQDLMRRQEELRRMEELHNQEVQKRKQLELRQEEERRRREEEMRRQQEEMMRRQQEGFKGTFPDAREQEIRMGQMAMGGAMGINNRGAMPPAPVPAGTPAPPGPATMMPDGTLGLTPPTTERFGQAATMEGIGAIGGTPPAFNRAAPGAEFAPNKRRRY
UniProt Q15154: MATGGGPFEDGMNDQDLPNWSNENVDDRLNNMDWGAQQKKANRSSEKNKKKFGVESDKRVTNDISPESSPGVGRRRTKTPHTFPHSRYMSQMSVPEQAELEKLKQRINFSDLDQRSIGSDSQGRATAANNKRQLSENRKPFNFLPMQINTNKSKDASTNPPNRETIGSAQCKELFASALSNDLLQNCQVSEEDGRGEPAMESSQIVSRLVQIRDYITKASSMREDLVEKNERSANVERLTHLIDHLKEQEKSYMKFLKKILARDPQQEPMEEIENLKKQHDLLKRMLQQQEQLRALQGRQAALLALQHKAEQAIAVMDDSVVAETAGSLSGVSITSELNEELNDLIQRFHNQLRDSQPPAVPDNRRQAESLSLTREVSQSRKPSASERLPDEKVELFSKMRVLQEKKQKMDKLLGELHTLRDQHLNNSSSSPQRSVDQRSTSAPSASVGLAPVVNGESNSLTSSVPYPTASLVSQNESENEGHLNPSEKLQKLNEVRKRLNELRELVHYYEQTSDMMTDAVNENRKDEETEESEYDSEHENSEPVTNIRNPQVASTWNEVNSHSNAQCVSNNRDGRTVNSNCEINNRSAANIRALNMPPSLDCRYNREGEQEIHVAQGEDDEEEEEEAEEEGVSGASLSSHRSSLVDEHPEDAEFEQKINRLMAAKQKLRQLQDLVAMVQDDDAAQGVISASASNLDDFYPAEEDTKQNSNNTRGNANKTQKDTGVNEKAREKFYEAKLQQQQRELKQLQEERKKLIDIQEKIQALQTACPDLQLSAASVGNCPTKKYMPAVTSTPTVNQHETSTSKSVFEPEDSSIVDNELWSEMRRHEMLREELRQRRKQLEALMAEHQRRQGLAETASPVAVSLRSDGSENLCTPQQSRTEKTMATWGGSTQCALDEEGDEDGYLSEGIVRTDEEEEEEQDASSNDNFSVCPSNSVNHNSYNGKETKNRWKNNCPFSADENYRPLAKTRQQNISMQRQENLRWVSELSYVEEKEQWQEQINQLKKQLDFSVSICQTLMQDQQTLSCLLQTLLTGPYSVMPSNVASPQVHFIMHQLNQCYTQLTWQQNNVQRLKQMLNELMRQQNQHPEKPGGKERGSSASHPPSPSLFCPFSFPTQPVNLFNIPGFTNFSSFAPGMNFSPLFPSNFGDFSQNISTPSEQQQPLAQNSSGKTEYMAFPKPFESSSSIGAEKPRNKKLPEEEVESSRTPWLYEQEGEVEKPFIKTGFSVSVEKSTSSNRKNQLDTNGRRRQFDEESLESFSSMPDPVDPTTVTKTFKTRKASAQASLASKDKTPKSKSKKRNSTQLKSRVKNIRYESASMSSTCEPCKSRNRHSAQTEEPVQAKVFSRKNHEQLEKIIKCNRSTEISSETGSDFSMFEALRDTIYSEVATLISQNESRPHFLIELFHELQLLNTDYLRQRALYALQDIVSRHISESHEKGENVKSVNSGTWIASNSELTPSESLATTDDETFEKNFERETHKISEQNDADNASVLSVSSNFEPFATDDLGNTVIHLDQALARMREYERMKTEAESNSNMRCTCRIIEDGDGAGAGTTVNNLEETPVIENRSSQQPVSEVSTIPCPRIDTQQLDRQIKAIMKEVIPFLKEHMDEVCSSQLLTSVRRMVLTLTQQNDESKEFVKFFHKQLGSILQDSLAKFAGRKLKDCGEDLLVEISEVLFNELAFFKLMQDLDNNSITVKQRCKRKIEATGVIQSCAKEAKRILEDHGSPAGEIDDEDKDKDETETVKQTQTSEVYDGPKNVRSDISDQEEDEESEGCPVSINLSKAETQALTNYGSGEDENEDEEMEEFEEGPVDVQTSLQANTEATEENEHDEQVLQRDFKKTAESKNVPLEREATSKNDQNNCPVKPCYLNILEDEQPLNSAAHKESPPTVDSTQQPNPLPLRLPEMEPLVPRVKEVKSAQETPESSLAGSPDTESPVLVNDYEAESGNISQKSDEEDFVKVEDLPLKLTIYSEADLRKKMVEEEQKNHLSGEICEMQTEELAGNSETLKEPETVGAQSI
UniProt Q15365, whole entry: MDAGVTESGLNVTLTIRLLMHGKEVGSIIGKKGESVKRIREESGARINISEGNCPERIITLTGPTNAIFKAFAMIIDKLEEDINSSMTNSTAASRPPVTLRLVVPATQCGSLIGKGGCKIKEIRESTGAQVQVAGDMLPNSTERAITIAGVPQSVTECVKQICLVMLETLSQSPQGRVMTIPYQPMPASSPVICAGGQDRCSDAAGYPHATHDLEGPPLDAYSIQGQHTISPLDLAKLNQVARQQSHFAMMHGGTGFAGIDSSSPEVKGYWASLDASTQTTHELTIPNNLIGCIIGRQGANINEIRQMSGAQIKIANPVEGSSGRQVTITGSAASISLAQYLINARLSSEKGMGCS
UniProt Q2VY69: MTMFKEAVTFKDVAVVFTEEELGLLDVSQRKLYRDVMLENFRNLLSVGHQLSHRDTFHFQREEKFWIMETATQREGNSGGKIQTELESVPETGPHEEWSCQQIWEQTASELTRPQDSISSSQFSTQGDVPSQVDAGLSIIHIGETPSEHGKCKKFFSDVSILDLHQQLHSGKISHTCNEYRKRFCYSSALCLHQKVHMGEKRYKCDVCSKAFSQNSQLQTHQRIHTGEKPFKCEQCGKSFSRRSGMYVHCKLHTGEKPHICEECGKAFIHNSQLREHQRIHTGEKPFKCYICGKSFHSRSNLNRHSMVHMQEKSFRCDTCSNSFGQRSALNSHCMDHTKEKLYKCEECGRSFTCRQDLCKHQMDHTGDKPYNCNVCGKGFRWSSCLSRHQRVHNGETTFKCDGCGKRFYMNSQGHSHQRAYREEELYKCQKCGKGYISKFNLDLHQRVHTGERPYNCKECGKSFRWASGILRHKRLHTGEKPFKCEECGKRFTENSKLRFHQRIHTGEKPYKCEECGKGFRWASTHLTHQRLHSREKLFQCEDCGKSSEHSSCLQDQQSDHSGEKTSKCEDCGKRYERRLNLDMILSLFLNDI
UniProt Q15389: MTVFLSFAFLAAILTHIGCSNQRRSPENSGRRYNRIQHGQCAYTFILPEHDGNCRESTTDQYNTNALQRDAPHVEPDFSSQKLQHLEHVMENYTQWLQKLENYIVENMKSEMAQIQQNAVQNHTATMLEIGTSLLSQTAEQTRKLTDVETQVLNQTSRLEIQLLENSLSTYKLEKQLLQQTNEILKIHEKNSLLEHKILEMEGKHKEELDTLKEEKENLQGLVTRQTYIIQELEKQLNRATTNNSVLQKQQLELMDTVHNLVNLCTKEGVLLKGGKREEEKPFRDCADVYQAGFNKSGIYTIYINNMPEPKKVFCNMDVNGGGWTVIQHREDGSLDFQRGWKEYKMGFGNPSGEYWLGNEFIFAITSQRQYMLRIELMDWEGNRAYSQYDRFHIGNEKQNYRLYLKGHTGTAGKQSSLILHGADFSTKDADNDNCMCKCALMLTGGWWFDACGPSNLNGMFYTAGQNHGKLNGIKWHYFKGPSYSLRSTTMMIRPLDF
UniProt Q15836, whole entry: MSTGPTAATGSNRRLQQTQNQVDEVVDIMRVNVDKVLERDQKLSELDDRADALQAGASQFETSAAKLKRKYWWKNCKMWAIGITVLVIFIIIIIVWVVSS
UniProt Q16576, whole entry: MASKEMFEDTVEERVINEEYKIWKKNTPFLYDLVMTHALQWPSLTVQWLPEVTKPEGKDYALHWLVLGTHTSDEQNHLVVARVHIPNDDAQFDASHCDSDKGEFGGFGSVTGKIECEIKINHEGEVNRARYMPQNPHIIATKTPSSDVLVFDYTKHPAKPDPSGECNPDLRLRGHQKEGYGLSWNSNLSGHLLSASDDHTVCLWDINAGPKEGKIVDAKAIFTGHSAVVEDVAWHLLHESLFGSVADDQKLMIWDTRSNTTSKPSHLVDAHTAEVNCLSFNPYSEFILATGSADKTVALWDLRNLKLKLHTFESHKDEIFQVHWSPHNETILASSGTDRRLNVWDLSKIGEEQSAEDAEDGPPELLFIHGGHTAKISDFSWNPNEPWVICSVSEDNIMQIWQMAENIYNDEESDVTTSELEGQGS
UniProt Q32MZ4: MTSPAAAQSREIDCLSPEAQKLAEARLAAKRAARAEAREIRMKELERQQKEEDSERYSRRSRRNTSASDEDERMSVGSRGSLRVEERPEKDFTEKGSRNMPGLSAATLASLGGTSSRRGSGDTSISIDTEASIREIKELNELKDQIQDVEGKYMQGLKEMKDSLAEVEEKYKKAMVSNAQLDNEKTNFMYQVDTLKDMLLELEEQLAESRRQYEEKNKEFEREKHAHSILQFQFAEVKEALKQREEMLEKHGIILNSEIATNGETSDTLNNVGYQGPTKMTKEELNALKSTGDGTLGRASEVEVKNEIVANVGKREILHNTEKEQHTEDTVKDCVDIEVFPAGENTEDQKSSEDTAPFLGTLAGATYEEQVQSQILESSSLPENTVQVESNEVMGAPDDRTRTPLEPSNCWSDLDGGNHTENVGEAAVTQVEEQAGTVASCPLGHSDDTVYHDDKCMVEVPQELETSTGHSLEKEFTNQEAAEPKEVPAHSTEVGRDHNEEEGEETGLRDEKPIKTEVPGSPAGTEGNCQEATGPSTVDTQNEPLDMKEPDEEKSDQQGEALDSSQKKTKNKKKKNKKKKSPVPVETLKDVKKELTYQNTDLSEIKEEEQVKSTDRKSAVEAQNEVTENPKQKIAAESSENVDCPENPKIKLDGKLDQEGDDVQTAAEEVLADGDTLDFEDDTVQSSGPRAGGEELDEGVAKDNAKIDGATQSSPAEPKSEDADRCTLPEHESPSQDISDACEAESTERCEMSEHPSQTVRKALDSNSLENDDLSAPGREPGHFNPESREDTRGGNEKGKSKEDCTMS
UniProt Q15833: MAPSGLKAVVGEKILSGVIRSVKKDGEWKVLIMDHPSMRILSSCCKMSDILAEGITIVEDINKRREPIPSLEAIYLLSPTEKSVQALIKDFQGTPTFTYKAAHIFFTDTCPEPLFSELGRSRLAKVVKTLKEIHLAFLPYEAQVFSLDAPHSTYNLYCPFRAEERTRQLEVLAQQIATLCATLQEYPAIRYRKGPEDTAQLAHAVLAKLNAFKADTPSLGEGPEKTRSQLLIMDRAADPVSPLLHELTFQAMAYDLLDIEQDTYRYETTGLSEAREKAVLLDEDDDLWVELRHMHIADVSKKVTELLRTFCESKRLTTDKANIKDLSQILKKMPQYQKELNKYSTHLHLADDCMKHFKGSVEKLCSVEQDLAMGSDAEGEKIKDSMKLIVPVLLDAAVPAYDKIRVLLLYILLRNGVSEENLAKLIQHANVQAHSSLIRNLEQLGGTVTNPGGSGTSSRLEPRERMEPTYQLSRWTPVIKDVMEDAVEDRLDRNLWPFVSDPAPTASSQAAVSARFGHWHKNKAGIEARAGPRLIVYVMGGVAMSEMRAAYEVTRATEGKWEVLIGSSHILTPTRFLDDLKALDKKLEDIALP
UniProt Q16610: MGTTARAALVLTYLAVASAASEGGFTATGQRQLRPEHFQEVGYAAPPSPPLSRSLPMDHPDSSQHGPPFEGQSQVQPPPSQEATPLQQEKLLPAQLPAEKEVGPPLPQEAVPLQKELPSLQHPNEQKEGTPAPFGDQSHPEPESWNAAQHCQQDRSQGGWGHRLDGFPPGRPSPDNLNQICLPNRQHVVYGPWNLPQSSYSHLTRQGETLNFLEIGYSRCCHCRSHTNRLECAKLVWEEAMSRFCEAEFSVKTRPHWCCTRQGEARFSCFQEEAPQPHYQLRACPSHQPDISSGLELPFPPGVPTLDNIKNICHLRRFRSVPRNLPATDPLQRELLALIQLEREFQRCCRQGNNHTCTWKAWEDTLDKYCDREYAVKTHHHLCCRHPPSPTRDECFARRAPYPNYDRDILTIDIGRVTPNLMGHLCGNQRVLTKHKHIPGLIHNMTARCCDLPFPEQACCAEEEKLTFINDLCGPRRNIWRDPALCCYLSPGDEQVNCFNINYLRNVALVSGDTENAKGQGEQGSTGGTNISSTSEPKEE
UniProt Q16864, whole entry: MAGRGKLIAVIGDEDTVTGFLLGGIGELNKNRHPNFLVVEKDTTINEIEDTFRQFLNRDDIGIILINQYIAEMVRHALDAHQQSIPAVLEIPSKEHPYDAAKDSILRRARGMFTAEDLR

Each target was assayed with Cc1nc(Nc2ncc(C(=O)Nc3c(C)cccc3Cl)s2)cc(N2CCN(CCO)CC2)n1 [dasatinib] (assay: log2 fold change of tryptic peptide abundance, ligand vs vehicle (limited proteolysis) (log2 ratio); higher = more trypsin-susceptible (destabilized)). Conditions: ligand concentration: 5 uM; sample: K562 cleared lysate.
“SF3A1 (peptide sequence: LKTEDSLMPEEEFLR, peptide start residue: 685) (UniProt Q15459)” gave a log2 fold change of -0.155.
“TAF5 (peptide sequence: SKKQDPNAPPQNR, peptide start residue: 414) (UniProt Q15542)” showed a log2 fold change of 0.328.
“UniProt Q16143 (peptide sequence: QGVTEAAEK, peptide start residue: 24)” was tested, and the log2 fold change was 0.0684.
With “NONO (peptide sequence: AGEVFIHK, peptide start residue: 100) (UniProt Q15233)” the log2 fold change was -0.14.
“PCM1 (peptide sequence: NQLDTNGR, peptide start residue: 1242) (UniProt Q15154)” gave a log2 fold change of 0.195.
Work on “UniProt Q15365 (peptide sequence: QGANINEIRQMSGAQIK, peptide start residue: 298)” yielded a log2 fold change of 0.331.
“UniProt Q15697 (peptide sequence: SPLLQEPTPK, peptide start residue: 195)” showed a log2 fold change of 0.379.
In the case of “UniProt Q2VY69 (peptide sequence: CQKCGKGYISK, peptide start residue: 429)”, the log2 fold change is reported as 0.163.
Target “MLF2 (peptide sequence: VYQETSEMR, peptide start residue: 120) (UniProt Q15773)” has a log2 fold change of -0.0523.
“NCOA1 (peptide sequence: SEILPASLQSATARPTSR, peptide start residue: 847) (UniProt Q15788)” gave a log2 fold change of -0.0777.
With “ELAVL1 (peptide sequence: FAANPNQNK, peptide start residue: 183) (UniProt Q15717)” the log2 fold change was 0.0828.
“UniProt Q15389 (peptide sequence: QSSLILHGADFSTK, peptide start residue: 415)” was tested, and the log2 fold change was 0.371.
“AAK1 (peptide sequence: MFVNNEHDLQVCKR, peptide start residue: 76) (UniProt Q2M2I8)” showed a log2 fold change of -0.247.
“VAMP3 (peptide sequence: STGPTAATGSNRR, peptide start residue: 2) (UniProt Q15836)” showed a log2 fold change of 0.327.
“RBBP7 (peptide sequence: RLNVWDLSK, peptide start residue: 340) (UniProt Q16576)” was tested, and the log2 fold change was -0.403.
“UniProt Q15019 (peptide sequence: YLHDESGLNR, peptide start residue: 129)” showed a log2 fold change of -0.304.
“BMT2 (peptide sequence: NLADNHWAK, peptide start residue: 80) (UniProt Q1RMZ1)” gave a log2 fold change of 0.414.
Target “UniProt Q155Q3 (peptide sequence: GTSDLQLVR, peptide start residue: 509)” has a log2 fold change of -0.225.
“UAP1 (peptide sequence: DVVNVYEPQLQHHVAQKK, peptide start residue: 340) (UniProt Q16222)” showed a log2 fold change of 0.835.
“LRRFIP1 (peptide sequence: ELNELKDQIQDVEGK, peptide start residue: 138) (UniProt Q32MZ4)” gave a log2 fold change of 0.586.
Work on “HADH (peptide sequence: LVAENKFGK, peptide start residue: 296) (UniProt Q16836)” yielded a log2 fold change of 0.274.
Target “EIF4H (peptide sequence: TVATPLNQVANPNSAIFGGARPR, peptide start residue: 217) (UniProt Q15056)” has a log2 fold change of 0.23.
Work on “UniProt Q15286 (peptide sequence: WLHEINQNCDDVCR, peptide start residue: 102)” yielded a log2 fold change of -0.567.
“HKDC1 (peptide sequence: MLPTFVR, peptide start residue: 63) (UniProt Q2TB90)” gave a log2 fold change of 0.0289.
Target “TAF9 (peptide sequence: DMGITEYEPR, peptide start residue: 25) (UniProt Q16594)” has a log2 fold change of -0.192.
“GEN1 (peptide sequence: TCNVRPPNTALDHSR, peptide start residue: 765) (UniProt Q17RS7)” showed a log2 fold change of 0.349.
“SSX1 (peptide sequence: QATDFQGNDFDNDHNRR, peptide start residue: 75) (UniProt Q16384)” showed a log2 fold change of 0.145.
For “TNIP1 (peptide sequence: VPEVVALGAAEK, peptide start residue: 290) (UniProt Q15025)”, the log2 fold change was -0.474.
Target “STXBP2 (peptide sequence: RREPIPSLEAIYLLSPTEK, peptide start residue: 64) (UniProt Q15833)” has a log2 fold change of -0.249.
“UniProt Q2KJY2 (peptide sequence: SSGLASK, peptide start residue: 1792)” gave a log2 fold change of 0.0209.
Work on “TST (peptide sequence: FQLVDSR, peptide start residue: 177) (UniProt Q16762)” yielded a log2 fold change of 0.302.
In the case of “UniProt Q29980 (peptide sequence: VCEIHEDSSTR, peptide start residue: 118)”, the log2 fold change is reported as 0.03.
“MTHFSD (peptide sequence: TQEVKVDPDKPLEGVR, peptide start residue: 59) (UniProt Q2M296)” showed a log2 fold change of 0.635.
In the case of “ECM1 (peptide sequence: QLRPEHFQEVGYAAPPSPPLSR, peptide start residue: 32) (UniProt Q16610)”, the log2 fold change is reported as 0.223.
“PCGF3 (peptide sequence: IVIHQSHPLQYIGHDR, peptide start residue: 57) (UniProt Q3KNV8)” gave a log2 fold change of 0.334.
“PROSER3 (peptide sequence: KLEQAQGSKGDR, peptide start residue: 295) (UniProt Q2NL68)” gave a log2 fold change of 0.532.
“ATP6V1F (peptide sequence: NRHPNFLVVEK, peptide start residue: 31) (UniProt Q16864)” was tested, and the log2 fold change was -0.0482.
